One compound from ChEMBL document CHEMBL2150981, “Discovery and optimization of benzotriazine di-N-oxides targeting replicating and nonreplicating Mycobacterium tuberculosis” (J Med Chem, 2012) can be followed below.

≈ marks a conversion by molar mass, not a printed value.

As usually defined, the MIC90 is the lowest concentration that inhibits either 90% of growth or 90% of the strains tested, depending on the study.

Experiment [1] concerns Mycobacterium tuberculosis. In words: Antitubercular activity against Mycobacterium tuberculosis H37Rv isolate ITR after 7 days by luminescence spectrometry. The following applies: 168 h. Type of experiment: functional.
The subject of experiment [2] is Mycobacterium tuberculosis. In words: Antitubercular activity against Mycobacterium tuberculosis H37Rv isolate SRI after 5 days by resazurin-based microplate assay. Type of experiment: functional. The note with it: 120 h. The essentials:
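Mid-log cultures grown in 7H9 with glycerol, Tween-80 and ADC. Compounds in DMSO were tested two-fold from […] against ~10^5 CFU/mL, 37°C for 5 d. Resazurin was then added for a further 2 d, and fluorescence read at ex 530/em 590 with visual confirmation. MIC was the lowest concentration inhibiting 90% of growth. Final DMSO 0.625%; two-fold variation taken as assay error.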
(In general: Resazurin is reduced to fluorescent resorufin, in cell work by metabolically active cells.)

With `O=C1OCCN1/N=C/c1ccc([N+](=O)[O-])o1` [FURAZOLIDONE], the MIC90 was 30 µg/mL (≈ 133 µM) in experiment [1] and 31 µg/mL (≈ 138 µM) in experiment [2].
